Experimental data reported in article PMC10929186.

Chains of the proteins cited; added tags and fusions are not shown.
UniProt P14602: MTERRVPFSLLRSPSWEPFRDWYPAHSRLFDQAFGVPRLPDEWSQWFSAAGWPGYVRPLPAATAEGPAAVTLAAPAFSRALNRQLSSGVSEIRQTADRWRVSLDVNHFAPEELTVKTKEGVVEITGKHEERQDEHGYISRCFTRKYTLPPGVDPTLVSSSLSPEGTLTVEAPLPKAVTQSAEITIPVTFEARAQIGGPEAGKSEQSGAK
UniProt P07356: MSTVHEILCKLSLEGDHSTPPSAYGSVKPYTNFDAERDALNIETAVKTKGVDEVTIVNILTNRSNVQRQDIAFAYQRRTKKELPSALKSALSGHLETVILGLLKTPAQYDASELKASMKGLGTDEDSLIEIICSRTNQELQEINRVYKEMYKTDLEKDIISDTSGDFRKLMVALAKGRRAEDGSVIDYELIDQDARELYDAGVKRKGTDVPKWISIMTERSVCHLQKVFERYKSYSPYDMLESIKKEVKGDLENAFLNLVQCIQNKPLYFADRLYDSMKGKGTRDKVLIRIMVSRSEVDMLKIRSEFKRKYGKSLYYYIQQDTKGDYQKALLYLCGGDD

Target: Hspb1 (mouse (endogenous in primary acinar cells and 266-6 cells)) (UniProt P14602)
Assay: affinity purification with mass spectrometry; anti-Hspb1 antibody immunoprecipitation from primary acinar cells treated with 100 nM caerulein for 6 hours; precipitate analysed by mass spectrometry

- binding: binds
Substance: Anxa2 (from UniProt P07356 1-339)

These are yes or no findings as the source states them, for the method shown. In cells and extracts the contact can be indirect. Here binding means that the protein was enriched with, or labelled near, the bait; the list need not be complete.
